Test results reported in patent US6482436B1, “Magnetically responsive composition” (FeRx Incorporated, priority 1993, dated 2002).
Counter-ions that a name gives are not always drawn. For at least one compound, name, drawing or mass did not settle the structure.

Assay: Adsorption curves and adsorption constants of pharmaceutical agents on iron:carbon carrier particles
Format: physicochemical
Details: 80:20 Type K; 0.9% NaCl; equilibration 1 hr
Procedure: Adsorption upon the particles of various types of pharmaceutical agents at a range of concentrations of the pharmaceutical agent in the absorption solution was performed to determine the absorption curves and absorption constants for each compound as follows: A 16-mer anti-C-Myc oligonucleotide useful in antisense gene-directed therapy is an all phosphorothioate oligodeoxynucleotide, fluorescein-labeled at 5′ end (Macromolecular Resources, Fort Collins, Colo.). […] Unbound drug in adsorption supernatants was determined from the fluorescein fluorescence (Exc. 495 nm, em. 549 nm) using a standard curve. […] A stock adsorption solution was prepared and drug concentration was determined by spectrophotometry according to G. Garbo et al. Anal. […] The adsorption equation determined by computer analysis using commercially available software was: […] […] Drug concentration in adsorption supernatants was determined by spectrophotometry (standard curve: […] Drug concentrations in adsorption supernatants determined by spectrophotometry yielded the following equation for the concentration curve: […] Drug concentration in adsorption supernatants as determined by spectrophotometry yield the following equation for the concentration curve: […] Concentration was determined by absorbance at 253 nm (λmax=253 nm in saline solution).

## CC1=C(CCC(=O)O)c2cc3[nH]c(cc4nc(cc5[nH]c(cc1n2)c(C)c5C(C)O)C(C)=C4C(C)O)c(C)c3CCC(=O)O (centres unmarked) [Hematoporphyrin, Hematoporphyrin dihydrochloride]
  Adsorption constant: (3.0 ± 1.8)10^−4 (mg/ml)^−1
  Maximum adsorption (% of carrier weight): 5.97 ± 0.24 % of carrier weight
